PubChem BioAssay AID652259, Drosophila RNAi Screening Center | 2013
The deposit covers about 22,000 reagents; shown is a random part of those that have a named target and a result. Of all reagents, 233 (1.1%) are marked active. 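Light values are raw, unnormalised plate reads; the ratio scores behind the reporter calls were not deposited.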 A number with no mark means an inactive call. Not stated in the record: the amount of reagent, the time to read-out, the dose of the treatment.

Aim: 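Genome-wide hunt for genes that control Wingless pathway activity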 (primary screen)
Cells: Drosophila clone 8 imaginal disc epithelial cells
Knock-down reagent: long dsRNA against Drosophila genes
Conditions: pathway stimulated by co-transfected Wingless expression plasmid
Read-out: 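Firefly luciferase from a tcf-site Wingless reporter, measured alongside co-transfected Renilla luciferase that tracks transfection; pathway stimulated by a Wingless plasmid; the firefly-to-Renilla ratio is not deposited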
Reading the numbers: firefly reporter light: higher = more Wg reporter light, before normalisation; Renilla control light: higher = more transfected or surviving cells
Active means: 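Strong candidates differ from their plate mean by at least two out of four per-plate statistical tests; weak candidates meet just one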
Calls: active = candidate regulator (raises or lowers reporter); inactive = not a candidate

target gene	PubChem SID	firefly reporter light, replicate 1	firefly reporter light, replicate 2	Renilla control light, replicate 1	Renilla control light, replicate 2
mRpS25 (mitochondrial ribosomal protein S25)	SID104199390	26516		15349	
spn-A (spindle A)	SID104196604	7945		2483	
CG15531	SID104194860	7971		2753	
CG11322	SID104181934	3446	7197	1526	3505
Pp2B-14D (Protein phosphatase 2B at 14D)	SID104200062	10291		8332	
CG11906	SID104185888	7665		2877	
CG12360 (retired record)	SID104194297	20108		4768	
Adat1 (Adenosine deaminase, tRNA-specific 1)	SID104183271	1973	7590	999	2836
CG5853	SID104180895	18925		11004	
CG5853	SID104182698	8066		1895	
CG31008	SID104193820	2722		1082	
Rh50	SID104188484	5465		2121	
cmb (combover)	SID104189582	6428		2694	
TBPH (TAR DNA-binding protein-43 homolog)	SID104184452	11668		2721	
f (forked)	SID104198966	2113		1078	
f (forked)	SID104199308	17892		7749	
f (forked)	SID104200123	14391		6576	
Dph5 (Diphthamide methyltransferase)	SID104196445	2279	7252	1427	2003
Moca-cyp	SID104195156	4918	8845	2169	1293

2 entries already listed, sorted by “Renilla control light, replicate 1”, descending:
target gene	PubChem SID	firefly reporter light, replicate 1	firefly reporter light, replicate 2	Renilla control light, replicate 1	Renilla control light, replicate 2
TBPH (TAR DNA-binding protein-43 homolog)	SID104184452	11668		2721	
f (forked)	SID104198966	2113		1078	

The listing continues:
target gene	PubChem SID	firefly reporter light, replicate 1	firefly reporter light, replicate 2	Renilla control light, replicate 1	Renilla control light, replicate 2
CG17724	SID104186479	7234		2706	
CG15599	SID104199460	14172		7505	
Elp4 (Elongator complex protein 4)	SID104182791	2162	2968	726	561
Pgant1 (Polypeptide N-Acetylgalactosaminyltransferase 1)	SID104186887	6577		2326	
pwn (pawn)	SID104185827	3011	7968	864	3206
Nepl7 (Neprilysin-like 7)	SID104182287	3108	9232	1536	4070
Sfp26Ad (Seminal fluid protein 26Ad)	SID104180696	15236		8420	
Boot (Bootlegger)	SID104186204	2006	5308	736	2508
CG14448	SID104191497	12696		3625	
Mgat2	SID104196139	2713	5154	1272	2180
